This is one part of the list. Residues, ends and D or L forms follow the SMILES beside them. *: point of attachment. Cbz = O=C(OCc1ccccc1)*
Tests used:
Assay in all cases: log2 fold change, soluble protein after heating vs DMSO (PISA); higher = thermal stabilisation; K562 cells, 10 uM, 30 min; active = over 0.2 and 3.5 SD of the protein, either way, in both replicates (recomputed)
IRAK-1-4 Inhibitor I = compound: C1COCCN1CCN2C3=CC=CC=C3N=C2NC(=O)C4=CC(=CC=C4)[N+](=O)[O-] [IRAK-1-4 Inhibitor I]
Summary of the method: (§1)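 Values are thermal stability changes relative to control samples and are taken from duplicates. They are stated as log2 fold changes. Before quantification by TMTpro 16plex LC-MS/MS with equalised channel sums, K562 cells at 2×10^6 cells/mL were treated with 10 μM compound for 30 min, heated in aliquots for 3 min across 48°C-58°C, pooled, extracted in PBS with 0.5% NP-40 at 4°C, and centrifuged at 21,000xg for 90 min to give the soluble supernatant.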

The chains behind the UniProt entries cited, without tags or fusion partners. Where a name states a change or a piece, a line headed by the entry shows the natural chain unless it says otherwise.
UniProt Q96DA6: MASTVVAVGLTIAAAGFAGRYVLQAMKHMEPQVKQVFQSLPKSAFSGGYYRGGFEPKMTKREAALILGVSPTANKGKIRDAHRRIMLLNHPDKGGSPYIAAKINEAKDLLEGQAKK
UniProt Q6V1X1: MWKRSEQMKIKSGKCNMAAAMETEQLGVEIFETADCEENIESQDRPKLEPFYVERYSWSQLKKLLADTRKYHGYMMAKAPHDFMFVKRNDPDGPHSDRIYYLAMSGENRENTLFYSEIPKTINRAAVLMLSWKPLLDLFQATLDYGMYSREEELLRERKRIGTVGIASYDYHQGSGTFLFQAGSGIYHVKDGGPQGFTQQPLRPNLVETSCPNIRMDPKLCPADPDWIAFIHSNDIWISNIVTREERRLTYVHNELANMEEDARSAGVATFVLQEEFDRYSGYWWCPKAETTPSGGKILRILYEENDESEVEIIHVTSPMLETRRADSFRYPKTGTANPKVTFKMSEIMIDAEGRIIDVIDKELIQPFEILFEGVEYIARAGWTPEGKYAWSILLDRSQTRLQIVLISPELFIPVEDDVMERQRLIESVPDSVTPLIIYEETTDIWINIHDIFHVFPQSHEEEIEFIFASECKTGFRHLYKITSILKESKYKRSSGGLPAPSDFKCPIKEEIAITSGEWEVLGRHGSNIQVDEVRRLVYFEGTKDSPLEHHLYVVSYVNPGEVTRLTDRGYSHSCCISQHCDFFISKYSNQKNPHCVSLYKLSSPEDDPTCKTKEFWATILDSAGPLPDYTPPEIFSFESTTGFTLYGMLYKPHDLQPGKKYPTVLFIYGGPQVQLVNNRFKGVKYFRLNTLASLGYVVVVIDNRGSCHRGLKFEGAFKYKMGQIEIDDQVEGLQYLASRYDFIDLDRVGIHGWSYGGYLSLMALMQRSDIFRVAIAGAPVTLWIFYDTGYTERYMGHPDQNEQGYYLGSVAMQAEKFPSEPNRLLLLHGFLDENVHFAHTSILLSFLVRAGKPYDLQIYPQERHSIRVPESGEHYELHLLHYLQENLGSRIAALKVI
UniProt Q96G46: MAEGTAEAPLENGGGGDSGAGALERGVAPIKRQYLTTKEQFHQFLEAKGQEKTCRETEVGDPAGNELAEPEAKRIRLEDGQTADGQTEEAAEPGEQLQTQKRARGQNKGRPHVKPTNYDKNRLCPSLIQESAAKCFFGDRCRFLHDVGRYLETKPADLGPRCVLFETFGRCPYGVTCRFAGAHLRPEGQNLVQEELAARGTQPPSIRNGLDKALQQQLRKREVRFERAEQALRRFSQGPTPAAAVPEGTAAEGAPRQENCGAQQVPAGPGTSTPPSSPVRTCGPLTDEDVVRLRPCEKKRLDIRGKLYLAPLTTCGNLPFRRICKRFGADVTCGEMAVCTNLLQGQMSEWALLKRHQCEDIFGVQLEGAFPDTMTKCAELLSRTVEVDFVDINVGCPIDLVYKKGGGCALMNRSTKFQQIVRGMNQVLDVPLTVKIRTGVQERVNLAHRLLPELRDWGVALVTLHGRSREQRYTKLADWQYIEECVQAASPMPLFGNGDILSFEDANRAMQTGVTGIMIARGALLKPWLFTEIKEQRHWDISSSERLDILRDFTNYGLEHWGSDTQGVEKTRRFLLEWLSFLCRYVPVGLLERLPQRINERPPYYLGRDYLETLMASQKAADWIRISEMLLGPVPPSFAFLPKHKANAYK
UniProt O77932: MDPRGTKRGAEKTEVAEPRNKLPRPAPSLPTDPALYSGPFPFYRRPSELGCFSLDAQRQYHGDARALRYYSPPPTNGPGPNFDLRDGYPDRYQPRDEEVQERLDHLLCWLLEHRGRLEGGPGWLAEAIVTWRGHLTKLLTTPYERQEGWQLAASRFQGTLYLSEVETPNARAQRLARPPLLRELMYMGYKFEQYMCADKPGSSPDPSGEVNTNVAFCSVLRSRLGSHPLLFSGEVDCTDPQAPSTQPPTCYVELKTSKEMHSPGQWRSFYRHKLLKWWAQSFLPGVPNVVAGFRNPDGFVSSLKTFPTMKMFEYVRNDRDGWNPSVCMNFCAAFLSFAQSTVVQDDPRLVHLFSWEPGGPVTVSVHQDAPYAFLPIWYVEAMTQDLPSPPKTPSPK
UniProt Q9NX74: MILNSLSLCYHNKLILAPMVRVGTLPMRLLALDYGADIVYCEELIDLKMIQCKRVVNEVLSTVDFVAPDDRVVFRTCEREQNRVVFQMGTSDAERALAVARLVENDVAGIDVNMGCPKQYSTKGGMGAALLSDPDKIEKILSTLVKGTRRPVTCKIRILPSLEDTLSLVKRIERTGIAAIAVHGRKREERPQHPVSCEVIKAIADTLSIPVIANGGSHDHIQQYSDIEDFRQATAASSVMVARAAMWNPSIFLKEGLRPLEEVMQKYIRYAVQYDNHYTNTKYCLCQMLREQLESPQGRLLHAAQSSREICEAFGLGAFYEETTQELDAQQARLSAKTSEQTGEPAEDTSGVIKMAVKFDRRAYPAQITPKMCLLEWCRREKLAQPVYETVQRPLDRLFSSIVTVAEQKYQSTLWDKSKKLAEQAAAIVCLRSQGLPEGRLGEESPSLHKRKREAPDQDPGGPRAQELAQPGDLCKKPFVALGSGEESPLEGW
UniProt Q5VYK3, whole entry, looked up: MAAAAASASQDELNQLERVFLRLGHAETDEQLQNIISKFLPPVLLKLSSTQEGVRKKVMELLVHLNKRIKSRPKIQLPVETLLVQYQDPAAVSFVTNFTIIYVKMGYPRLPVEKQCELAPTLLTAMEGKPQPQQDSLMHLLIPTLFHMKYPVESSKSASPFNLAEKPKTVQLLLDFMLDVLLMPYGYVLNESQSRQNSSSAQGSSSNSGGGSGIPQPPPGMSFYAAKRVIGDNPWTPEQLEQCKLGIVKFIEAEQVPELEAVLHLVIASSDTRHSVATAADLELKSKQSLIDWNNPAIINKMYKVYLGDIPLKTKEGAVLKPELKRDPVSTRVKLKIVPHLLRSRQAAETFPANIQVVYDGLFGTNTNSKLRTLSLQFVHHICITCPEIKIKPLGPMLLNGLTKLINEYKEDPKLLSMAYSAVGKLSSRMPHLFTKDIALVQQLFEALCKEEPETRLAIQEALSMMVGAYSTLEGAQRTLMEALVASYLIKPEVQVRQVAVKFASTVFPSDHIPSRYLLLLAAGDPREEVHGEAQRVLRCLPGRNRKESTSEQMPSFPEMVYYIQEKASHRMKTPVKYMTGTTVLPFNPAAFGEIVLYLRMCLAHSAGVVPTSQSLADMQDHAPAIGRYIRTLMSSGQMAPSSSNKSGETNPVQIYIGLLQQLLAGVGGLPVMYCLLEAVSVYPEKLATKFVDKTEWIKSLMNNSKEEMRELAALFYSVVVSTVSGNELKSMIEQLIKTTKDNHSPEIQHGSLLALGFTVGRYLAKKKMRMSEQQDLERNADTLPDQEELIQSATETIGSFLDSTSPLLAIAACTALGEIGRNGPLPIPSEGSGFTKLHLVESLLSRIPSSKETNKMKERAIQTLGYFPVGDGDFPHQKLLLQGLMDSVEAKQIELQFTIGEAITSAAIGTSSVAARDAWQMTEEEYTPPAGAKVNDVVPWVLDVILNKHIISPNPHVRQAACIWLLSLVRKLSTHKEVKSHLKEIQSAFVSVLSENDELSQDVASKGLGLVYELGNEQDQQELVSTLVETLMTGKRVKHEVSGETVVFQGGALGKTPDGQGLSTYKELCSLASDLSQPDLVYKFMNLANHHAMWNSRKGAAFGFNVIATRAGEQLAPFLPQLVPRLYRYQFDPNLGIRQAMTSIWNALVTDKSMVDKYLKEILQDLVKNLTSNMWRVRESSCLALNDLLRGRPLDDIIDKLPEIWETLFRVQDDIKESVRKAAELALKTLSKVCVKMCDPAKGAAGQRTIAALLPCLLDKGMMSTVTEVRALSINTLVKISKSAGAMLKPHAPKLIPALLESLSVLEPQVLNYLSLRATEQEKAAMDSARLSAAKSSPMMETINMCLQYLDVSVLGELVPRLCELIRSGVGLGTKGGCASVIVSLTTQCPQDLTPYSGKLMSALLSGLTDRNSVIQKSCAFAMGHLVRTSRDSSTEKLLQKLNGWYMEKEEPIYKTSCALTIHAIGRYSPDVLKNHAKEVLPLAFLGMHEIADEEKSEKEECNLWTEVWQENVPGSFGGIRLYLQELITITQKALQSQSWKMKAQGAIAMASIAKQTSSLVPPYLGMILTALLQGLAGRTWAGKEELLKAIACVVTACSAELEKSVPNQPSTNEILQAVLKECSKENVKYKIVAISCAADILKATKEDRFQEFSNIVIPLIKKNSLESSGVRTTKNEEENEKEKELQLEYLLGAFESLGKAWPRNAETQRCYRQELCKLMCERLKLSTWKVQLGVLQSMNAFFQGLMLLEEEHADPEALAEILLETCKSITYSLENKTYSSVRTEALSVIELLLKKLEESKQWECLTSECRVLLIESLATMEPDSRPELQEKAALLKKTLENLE
UniProt Q9H410: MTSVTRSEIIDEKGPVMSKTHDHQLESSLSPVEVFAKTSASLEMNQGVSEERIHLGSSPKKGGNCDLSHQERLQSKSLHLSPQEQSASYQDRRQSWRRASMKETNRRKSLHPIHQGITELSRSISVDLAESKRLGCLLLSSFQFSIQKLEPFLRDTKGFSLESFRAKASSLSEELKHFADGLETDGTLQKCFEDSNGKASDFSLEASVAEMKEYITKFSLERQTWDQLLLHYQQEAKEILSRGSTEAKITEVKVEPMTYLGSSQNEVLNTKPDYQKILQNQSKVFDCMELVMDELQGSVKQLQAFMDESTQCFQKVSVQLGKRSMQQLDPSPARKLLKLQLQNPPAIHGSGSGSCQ
UniProt O60762: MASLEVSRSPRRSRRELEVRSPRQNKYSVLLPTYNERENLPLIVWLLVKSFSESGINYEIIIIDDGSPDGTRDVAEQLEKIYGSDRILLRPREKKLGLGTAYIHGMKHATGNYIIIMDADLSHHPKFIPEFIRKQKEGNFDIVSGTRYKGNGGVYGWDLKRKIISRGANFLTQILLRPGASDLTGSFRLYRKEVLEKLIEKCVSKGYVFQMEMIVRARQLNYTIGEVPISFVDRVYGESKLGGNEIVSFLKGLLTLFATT

ibrutinib = compound: C=CC(=O)N1CCC[C@@H](n2nc(-c3ccc(Oc4ccccc4)cc3)c3c(N)ncnc32)C1 [ibrutinib]
Summary of the method: as §1

[1] = compound: CC(=O)c1cnc2ccc(-c3cc(Cl)c(O)c(Cl)c3)nc2c1N[C@H]1CC[C@H](CN(C)C)CC1
Summary of the method: as §1

ralimetinib = compound: CC(C)(C)Cn1c(N)nc2ccc(-c3[nH]c(C(C)(C)C)nc3-c3ccc(F)cc3)nc21 [ralimetinib]
Summary of the method: as §1

[2] = compound: CC(C)(O)CC(=O)NCCn1ccc2ncnc(Nc3ccc(Oc4cccc(C(F)(F)F)c4)c(Cl)c3)c21
Summary of the method: as §1

[3] = compound: CC(C)C1=C2N=C(C=C(N2N=C1)NCC3=CC=CC=C3)NCCCCCCN
Summary of the method: as §1

[4] = compound: CC(C)C[C@@H](C=O)NC(=O)[C@H](CC(C)C)NC(=O)[C@H](CC(C)C)NC(=O)OCc1ccccc1
Summary of the method: as §1

pinometostat = compound: CC(C)N(C[C@H]1O[C@@H](n2cnc3c(N)ncnc32)[C@H](O)[C@@H]1O)[C@H]1C[C@@H](CCc2nc3cc(C(C)(C)C)ccc3[nH]2)C1 [pinometostat]
Summary of the method: as §1

[5] = compound: CC1=C(C2=C(C=C1)C(=O)C3=CC=CC=C3N2CCCN)C
Summary of the method: as §1

[6] = compound: CC1=C(C=C(C=C1)NC(=O)C2=CC(=CC=C2)C(C)(C)C#N)NC3=CC4=C(C=C3)N=CN(C4=O)C
Summary of the method: as §1

[7] = compound: CC1=C(C=C(C=C1)NC(=O)C2=CC(=CC=C2)N(C)C)NC(=O)C3=CC=C(C=C3)O
Summary of the method: as §1

[8] = compound: CC1=CC=C(C=C1)SC2=C3C=C(SC3=CN=C2)C(=O)N
Summary of the method: as §1

[9] = compound: CC1=NC(=CC=C1)C2=C(N=C(N2)C(C)(C)C)C3=CC4=NC=CN=C4C=C3
Summary of the method: as §1

Nexturastat A = compound: CCCCN(Cc1ccc(C(=O)NO)cc1)C(=O)Nc1ccccc1 [Nexturastat A]
Summary of the method: as §1

vemurafenib = compound: CCCS(=O)(=O)Nc1ccc(F)c(C(=O)c2c[nH]c3ncc(-c4ccc(Cl)cc4)cc23)c1F [vemurafenib]
Summary of the method: as §1

[10] = compound: CCCS(=O)(=O)Nc1ccc(F)c(C(=O)c2c[nH]c3ncc(Cl)cc23)c1F
Summary of the method: as §1

[11] = compound: CCCc1cc(C)[nH]c(=O)c1CNC(=O)c1cc(-c2ccnc(N3CCN(C)CC3)c2)cc2c1cnn2C(C)C
Summary of the method: as §1

givinostat = compound: CCN(CC)Cc1ccc2cc(COC(=O)Nc3ccc(C(=O)NO)cc3)ccc2c1 [givinostat]
Summary of the method: as §1

barasertib = compound: CCN(CCCOc1ccc2c(Nc3cc(CC(=O)Nc4cccc(F)c4)[nH]n3)ncnc2c1)CCOP(=O)(O)O [barasertib]
Summary of the method: as §1

[12] = compound: CC1=C(C(CC(=O)N1)C2=CC=C(C=C2)C(F)(F)F)C(=O)NC3=C(C=C4C(=C3)C=NN4)F
Summary of the method: as §1

Row | Target | log2 fold change (IRAK-1-4 Inhibitor I) | log2 fold change (ibrutinib) | log2 fold change [1] | log2 fold change (ralimetinib) | log2 fold change [2] | log2 fold change [3] | log2 fold change [4] | log2 fold change (pinometostat) | log2 fold change [5] | log2 fold change [6] | log2 fold change [7] | log2 fold change [8] | log2 fold change [9] | log2 fold change (Nexturastat A) | log2 fold change (vemurafenib) | log2 fold change [10] | log2 fold change [11] | log2 fold change (givinostat) | log2 fold change (barasertib) | log2 fold change [12]
1 | DNAJC19 (UniProt Q96DA6) | inactive: 0.045 | inactive: 0.024 | inactive: 0.038 | inactive: 0.029 | inactive: -0.054 | inactive: -0.153 | inactive: -0.006 | inactive: -0.013 | inactive: 0.023 | inactive: -0.02 | inactive: 0.001 | inactive: 0.043 | inactive: 0.069 | inactive: -0.121 | inactive: 0.003 | inactive: 0.035 | inactive: -0.013 | inactive: 0.005 | inactive: 0.007 | –
2 | DYRK1A isoform 2 (UniProt Q13627) | inactive: -0.001 | inactive: -0.009 | active: -0.358 | inactive: -0.046 | inactive: -0.042 | inactive: -0.254 | inactive: 0.064 | inactive: 0.055 | inactive: 0.144 | inactive: -0.025 | inactive: 0.061 | inactive: 0.003 | inactive: -0.005 | inactive: -0.032 | inactive: -0.021 | inactive: -0.024 | inactive: -0.019 | inactive: 0.038 | inactive: 0.004 | –
3 | DPP8 (UniProt Q6V1X1) | inactive: 0.002 | inactive: -0.001 | inactive: -0.035 | inactive: -0.046 | inactive: -0.005 | inactive: 0.059 | inactive: 0.015 | inactive: -0.018 | inactive: 0.12 | inactive: -0.109 | inactive: -0.026 | inactive: -0.031 | inactive: 0.021 | inactive: 0.082 | inactive: -0.056 | inactive: -0.05 | inactive: -0.176 | inactive: -0.026 | inactive: 0.014 | –
4 | DUS3L (UniProt Q96G46) | inactive: 0 | inactive: 0.008 | inactive: -0.031 | inactive: 0.042 | inactive: -0.043 | inactive: 0.062 | inactive: -0.055 | inactive: -0.022 | inactive: -0.005 | inactive: 0.064 | inactive: -0.015 | inactive: -0.01 | inactive: 0.017 | inactive: -0.023 | inactive: 0.042 | inactive: 0.031 | inactive: 0.036 | inactive: -0.004 | inactive: 0.021 | –
5 | DXO (UniProt O77932) | inactive: 0.011 | inactive: -0.005 | inactive: -0.07 | inactive: -0.084 | inactive: -0.188 | inactive: -0.067 | inactive: 0.062 | inactive: -0.028 | inactive: -0.016 | – | inactive: -0.012 | – | inactive: 0.099 | inactive: 0.216 | inactive: -0.029 | – | inactive: -0.011 | inactive: -0.09 | inactive: 0.023 | inactive: -0.019
6 | DUS2 (UniProt Q9NX74) | inactive: 0.014 | inactive: 0.041 | inactive: -0.063 | inactive: 0.033 | inactive: -0.161 | inactive: 0.043 | inactive: 0.044 | inactive: -0.001 | inactive: -0.1 | inactive: -0.028 | inactive: -0.022 | inactive: -0.022 | inactive: 0.04 | inactive: -0.015 | inactive: -0.004 | inactive: 0.099 | inactive: 0.039 | inactive: 0.062 | inactive: -0.062 | –
7 | ECPAS (UniProt Q5VYK3) | inactive: -0.117 | inactive: -0.09 | inactive: 0.009 | inactive: 0.082 | inactive: -0.139 | inactive: -0.094 | active: 0.564 | inactive: 0.055 | inactive: 0.092 | inactive: 0.008 | inactive: -0.06 | inactive: 0.016 | inactive: 0.02 | inactive: 0.049 | inactive: 0.084 | inactive: 0.059 | inactive: 0.051 | inactive: 0.118 | inactive: 0.037 | –
8 | DSN1 (UniProt Q9H410) | inactive: -0.143 | inactive: -0.038 | inactive: -0.041 | inactive: -0.131 | inactive: -0.055 | inactive: -0.106 | inactive: 0.004 | inactive: -0.037 | inactive: -0.045 | inactive: -0.02 | inactive: -0.096 | inactive: -0.003 | inactive: 0.021 | inactive: 0.051 | inactive: 0.133 | inactive: 0.022 | inactive: 0.004 | inactive: 0.053 | inactive: 0.075 | –
9 | DPM1 (UniProt O60762) | inactive: 0.041 | inactive: -0.022 | inactive: -0.003 | inactive: -0.1 | inactive: -0.04 | inactive: -0.048 | inactive: 0.041 | inactive: 0.027 | inactive: 0.026 | inactive: 0.022 | inactive: 0.031 | inactive: -0.004 | inactive: 0.031 | inactive: -0.022 | inactive: 0.036 | inactive: 0.023 | inactive: -0.018 | inactive: -0.004 | inactive: 0 | inactive: 0.002

— the supplement of paper PMC10849652
